Measured values reported in the supplement of paper PMC11006884.
Only a part is listed here, and it is no random draw.

Sequences of proteins named here, by UniProt entry; tags and fusion partners are left off. A change or cut given only in a name is not applied to a line headed by its entry.
UniProt Q9HCS7: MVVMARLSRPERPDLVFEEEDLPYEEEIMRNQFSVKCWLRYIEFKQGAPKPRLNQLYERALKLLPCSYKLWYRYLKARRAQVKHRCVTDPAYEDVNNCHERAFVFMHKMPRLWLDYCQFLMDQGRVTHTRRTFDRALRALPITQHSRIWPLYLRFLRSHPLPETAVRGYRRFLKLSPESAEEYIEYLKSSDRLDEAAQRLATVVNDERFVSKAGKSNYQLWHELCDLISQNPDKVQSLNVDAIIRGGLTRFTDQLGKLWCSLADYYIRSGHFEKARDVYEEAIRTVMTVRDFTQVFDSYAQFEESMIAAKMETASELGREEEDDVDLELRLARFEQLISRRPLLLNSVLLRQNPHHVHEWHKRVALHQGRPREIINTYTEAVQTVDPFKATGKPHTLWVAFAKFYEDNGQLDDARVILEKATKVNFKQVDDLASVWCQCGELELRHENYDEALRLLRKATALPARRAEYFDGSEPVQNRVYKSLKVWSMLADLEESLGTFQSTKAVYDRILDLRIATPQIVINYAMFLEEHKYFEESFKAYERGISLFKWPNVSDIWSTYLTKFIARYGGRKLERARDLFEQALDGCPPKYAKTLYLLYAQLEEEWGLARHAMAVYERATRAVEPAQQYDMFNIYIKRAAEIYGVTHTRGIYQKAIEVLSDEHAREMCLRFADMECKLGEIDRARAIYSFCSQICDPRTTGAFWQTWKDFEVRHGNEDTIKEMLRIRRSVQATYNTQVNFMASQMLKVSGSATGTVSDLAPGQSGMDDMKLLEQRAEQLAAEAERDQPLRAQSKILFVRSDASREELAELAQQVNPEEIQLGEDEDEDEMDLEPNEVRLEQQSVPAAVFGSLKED
UniProt Q9NU22: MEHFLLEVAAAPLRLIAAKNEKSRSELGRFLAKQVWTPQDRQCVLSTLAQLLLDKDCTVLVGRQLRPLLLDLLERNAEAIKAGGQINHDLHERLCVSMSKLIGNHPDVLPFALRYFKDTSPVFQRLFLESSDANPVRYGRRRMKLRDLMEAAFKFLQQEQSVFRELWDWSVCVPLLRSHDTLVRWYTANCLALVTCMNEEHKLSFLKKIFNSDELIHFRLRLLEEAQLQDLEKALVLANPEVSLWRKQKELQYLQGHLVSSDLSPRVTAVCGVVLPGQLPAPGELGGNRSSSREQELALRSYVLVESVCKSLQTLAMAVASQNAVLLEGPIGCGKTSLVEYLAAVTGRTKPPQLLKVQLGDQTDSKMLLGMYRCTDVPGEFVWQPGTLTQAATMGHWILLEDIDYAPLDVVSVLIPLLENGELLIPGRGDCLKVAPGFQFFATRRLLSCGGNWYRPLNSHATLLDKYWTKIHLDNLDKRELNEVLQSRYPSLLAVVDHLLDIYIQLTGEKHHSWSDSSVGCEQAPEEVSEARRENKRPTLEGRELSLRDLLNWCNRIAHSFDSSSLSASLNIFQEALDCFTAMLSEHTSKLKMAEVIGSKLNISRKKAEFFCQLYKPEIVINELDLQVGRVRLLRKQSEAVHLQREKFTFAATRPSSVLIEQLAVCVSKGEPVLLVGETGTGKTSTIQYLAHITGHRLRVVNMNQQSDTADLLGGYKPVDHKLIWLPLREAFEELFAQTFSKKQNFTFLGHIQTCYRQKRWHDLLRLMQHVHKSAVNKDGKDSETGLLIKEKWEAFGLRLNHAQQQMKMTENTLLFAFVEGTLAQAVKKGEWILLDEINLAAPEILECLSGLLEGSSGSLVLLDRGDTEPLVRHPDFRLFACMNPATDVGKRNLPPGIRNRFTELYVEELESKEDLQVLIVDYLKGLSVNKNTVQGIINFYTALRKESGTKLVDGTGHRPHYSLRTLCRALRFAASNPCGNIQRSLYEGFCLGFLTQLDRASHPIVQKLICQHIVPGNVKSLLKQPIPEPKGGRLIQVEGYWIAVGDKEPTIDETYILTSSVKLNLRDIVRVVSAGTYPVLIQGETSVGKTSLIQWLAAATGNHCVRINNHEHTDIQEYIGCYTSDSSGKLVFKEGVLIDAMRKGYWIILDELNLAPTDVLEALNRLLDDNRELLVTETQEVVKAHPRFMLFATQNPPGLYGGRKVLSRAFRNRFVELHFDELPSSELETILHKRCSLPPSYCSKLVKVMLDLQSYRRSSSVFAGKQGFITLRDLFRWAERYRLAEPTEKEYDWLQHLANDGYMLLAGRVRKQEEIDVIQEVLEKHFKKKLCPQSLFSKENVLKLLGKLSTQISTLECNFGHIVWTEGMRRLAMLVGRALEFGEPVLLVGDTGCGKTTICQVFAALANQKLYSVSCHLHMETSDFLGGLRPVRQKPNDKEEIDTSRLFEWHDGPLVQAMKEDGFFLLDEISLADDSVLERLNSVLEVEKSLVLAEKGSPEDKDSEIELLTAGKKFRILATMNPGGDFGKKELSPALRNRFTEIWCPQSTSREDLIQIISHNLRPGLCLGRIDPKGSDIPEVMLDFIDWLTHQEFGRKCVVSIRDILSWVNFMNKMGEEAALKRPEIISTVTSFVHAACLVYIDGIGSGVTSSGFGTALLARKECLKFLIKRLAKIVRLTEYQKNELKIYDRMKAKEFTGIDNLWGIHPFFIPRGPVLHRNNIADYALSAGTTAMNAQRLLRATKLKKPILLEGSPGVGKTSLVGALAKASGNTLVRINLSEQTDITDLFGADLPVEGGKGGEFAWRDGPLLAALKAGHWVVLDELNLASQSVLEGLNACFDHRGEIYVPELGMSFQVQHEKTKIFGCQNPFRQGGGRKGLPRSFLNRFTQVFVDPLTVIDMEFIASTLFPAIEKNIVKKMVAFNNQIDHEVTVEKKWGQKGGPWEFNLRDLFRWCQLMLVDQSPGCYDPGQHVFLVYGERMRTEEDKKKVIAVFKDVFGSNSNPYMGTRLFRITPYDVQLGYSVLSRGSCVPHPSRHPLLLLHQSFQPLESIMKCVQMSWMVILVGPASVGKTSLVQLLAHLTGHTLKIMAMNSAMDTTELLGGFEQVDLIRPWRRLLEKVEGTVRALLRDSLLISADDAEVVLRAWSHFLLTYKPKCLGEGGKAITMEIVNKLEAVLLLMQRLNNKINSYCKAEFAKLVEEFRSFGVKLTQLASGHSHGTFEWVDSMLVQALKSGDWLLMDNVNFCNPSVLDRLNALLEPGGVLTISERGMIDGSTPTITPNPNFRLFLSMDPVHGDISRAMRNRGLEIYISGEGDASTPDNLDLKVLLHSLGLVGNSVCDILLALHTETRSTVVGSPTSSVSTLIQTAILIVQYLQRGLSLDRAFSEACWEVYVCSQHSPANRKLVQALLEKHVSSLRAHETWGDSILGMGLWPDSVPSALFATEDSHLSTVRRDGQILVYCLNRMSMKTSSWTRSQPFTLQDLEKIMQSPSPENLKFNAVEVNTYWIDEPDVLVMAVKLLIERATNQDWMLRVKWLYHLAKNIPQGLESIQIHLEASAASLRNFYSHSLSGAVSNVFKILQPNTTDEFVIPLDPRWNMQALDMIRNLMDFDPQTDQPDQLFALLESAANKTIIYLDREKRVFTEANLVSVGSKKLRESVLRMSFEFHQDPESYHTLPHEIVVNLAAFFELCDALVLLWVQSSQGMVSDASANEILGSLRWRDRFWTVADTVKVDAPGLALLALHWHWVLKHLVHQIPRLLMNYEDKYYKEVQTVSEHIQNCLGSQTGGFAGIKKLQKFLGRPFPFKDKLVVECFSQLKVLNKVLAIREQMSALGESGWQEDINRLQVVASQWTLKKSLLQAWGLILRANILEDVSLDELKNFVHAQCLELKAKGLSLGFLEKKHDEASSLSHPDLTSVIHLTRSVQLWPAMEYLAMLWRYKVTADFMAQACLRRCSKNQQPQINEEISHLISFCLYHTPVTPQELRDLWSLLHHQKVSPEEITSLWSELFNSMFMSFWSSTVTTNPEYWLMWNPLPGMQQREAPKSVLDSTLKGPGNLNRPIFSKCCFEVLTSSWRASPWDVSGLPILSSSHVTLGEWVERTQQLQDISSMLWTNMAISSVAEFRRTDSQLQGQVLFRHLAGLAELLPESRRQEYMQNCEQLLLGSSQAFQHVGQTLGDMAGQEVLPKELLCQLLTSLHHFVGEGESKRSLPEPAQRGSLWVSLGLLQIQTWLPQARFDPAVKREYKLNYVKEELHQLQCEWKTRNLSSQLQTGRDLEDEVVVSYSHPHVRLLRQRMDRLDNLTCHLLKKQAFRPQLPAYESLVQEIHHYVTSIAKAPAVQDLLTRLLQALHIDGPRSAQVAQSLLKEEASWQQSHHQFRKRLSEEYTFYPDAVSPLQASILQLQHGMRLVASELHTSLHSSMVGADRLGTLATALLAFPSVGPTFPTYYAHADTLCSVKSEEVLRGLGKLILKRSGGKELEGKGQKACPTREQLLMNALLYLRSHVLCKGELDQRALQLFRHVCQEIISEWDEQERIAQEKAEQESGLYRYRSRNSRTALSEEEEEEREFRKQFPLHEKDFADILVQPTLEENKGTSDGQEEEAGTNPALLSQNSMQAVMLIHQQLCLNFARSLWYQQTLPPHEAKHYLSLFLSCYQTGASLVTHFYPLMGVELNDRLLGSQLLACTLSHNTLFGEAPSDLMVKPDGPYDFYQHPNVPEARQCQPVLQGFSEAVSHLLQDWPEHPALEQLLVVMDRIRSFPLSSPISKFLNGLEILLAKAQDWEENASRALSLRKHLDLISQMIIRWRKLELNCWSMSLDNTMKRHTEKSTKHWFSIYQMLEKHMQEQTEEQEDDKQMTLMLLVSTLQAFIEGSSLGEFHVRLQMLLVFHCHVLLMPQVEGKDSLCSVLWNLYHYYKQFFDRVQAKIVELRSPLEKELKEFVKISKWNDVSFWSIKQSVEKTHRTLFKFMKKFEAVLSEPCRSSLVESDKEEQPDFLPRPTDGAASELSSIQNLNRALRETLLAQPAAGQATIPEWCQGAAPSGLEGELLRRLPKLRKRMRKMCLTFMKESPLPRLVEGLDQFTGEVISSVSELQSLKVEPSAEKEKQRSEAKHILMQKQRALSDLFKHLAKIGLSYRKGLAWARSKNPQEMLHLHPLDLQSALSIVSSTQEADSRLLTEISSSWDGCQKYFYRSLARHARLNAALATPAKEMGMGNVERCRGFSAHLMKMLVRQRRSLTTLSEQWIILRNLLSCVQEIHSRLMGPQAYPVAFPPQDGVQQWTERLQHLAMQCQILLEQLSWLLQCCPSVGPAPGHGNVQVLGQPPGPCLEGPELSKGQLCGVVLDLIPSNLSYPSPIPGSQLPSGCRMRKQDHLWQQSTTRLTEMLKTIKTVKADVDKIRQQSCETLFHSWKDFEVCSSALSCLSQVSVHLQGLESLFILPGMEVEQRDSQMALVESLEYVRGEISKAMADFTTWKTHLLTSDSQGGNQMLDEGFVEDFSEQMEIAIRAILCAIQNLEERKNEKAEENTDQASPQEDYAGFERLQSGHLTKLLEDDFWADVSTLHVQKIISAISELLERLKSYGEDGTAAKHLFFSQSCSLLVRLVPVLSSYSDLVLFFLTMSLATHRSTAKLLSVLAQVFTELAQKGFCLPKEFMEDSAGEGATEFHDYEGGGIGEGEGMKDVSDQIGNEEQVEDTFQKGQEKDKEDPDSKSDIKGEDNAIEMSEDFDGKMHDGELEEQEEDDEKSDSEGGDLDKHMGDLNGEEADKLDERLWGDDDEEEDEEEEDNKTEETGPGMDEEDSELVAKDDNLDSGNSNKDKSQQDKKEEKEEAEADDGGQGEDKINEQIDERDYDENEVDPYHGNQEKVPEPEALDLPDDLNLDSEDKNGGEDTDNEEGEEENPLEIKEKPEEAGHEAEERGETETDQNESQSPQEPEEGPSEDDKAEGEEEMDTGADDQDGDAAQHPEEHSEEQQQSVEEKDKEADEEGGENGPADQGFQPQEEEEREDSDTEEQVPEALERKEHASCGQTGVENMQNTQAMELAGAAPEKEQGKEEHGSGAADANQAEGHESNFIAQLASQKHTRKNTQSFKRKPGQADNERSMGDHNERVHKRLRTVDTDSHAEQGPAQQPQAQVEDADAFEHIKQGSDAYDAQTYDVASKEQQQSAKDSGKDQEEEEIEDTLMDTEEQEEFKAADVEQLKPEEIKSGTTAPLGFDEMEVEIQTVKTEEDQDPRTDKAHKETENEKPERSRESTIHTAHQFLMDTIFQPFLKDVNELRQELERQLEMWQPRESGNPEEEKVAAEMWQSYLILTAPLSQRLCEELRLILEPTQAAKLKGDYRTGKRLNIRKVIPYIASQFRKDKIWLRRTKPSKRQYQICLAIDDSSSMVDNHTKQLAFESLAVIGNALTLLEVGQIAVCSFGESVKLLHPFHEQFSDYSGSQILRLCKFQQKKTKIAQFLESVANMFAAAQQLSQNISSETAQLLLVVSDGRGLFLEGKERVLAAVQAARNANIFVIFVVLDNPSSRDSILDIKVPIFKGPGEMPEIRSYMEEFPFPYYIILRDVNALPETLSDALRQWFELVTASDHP
UniProt Q9NRF9: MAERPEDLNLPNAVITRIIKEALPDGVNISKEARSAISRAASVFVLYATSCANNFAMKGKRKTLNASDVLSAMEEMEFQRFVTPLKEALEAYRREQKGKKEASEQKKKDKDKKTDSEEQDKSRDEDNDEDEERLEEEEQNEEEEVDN

Compound: COC(=O)C#Cc1ccccc1 [methyl 3-phenylpropiolate]
Assay: log2 ratio of iodoacetamide-alkyne labeling of the cysteine site, DMSO over compound (competition); higher = stronger covalent engagement of the cysteine by the compound, active = 1 or more
Details: 500 µM; treatment time 1 h; system: HEK293T cell lysate
In short: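 After 1 h at ambient temperature with vehicle or electrophile (500 µM), HEK293T lysate (2 mg/mL) was labelled for 1 h with iodoacetamide alkyne and clicked to sCIP-TMT reagents. Pooled samples were trypsin-digested overnight at 37 °C, streptavidin-enriched, acid-eluted and analysed by Orbitrap Eclipse LC-MS/MS with FAIMS, then quantified in FragPipe over three replicates with duplicate channels. A cysteine's log2 competition ratio is its mean control-channel over mean compound-channel reporter intensity. Cysteines quantified in only one replicate were not included.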

Target | log2 ratio of iodoacetamide-alkyne labeling
DDX21 C378 (UniProt Q9NR30) | inactive: 0.166
CHD8 C1980 (UniProt Q9HCK8) | inactive: 0.669
KLC4 C53 (UniProt Q9NSK0) | inactive: 0.0545
XPO5 C10 (UniProt Q9HAV4) | inactive: -0.0199
XAB2 C225 (UniProt Q9HCS7) | inactive: 0.447
UniProt Q9HC36_C290 | inactive: 0.36
MDN1 C57 (UniProt Q9NU22) | inactive: 0.0881
UBQLN4 C29 (UniProt Q9NRR5) | active: 1.12
MDN1 C43 (UniProt Q9NU22) | active: 1.32
XAB2 C66 (UniProt Q9HCS7) | inactive: 0.489
UNC45A C745 (UniProt Q9H3U1) | inactive: 0.172
POLE3 C51 (UniProt Q9NRF9) | inactive: 0.0109
AAAS C444 (UniProt Q9NRG9) | inactive: -0.0404
OSTC C14 (UniProt Q9NRP0) | inactive: 0.193
LRRC40 C23 (UniProt Q9H9A6) | inactive: 0.78
UniProt Q9NRY4_C730 | inactive: 0.388
UniProt Q9H6R7_C472 | inactive: 0.561
RPRD1B C234 (UniProt Q9NQG5) | inactive: 0.513
RABEP2 C115 (UniProt Q9H5N1) | inactive: 0.113

A section of the results above:
Target | log2 ratio of iodoacetamide-alkyne labeling
XPO5 C10 (UniProt Q9HAV4) | inactive: -0.0199
XAB2 C225 (UniProt Q9HCS7) | inactive: 0.447

Next results follow:

Target | log2 ratio of iodoacetamide-alkyne labeling
STRN4 C17 (UniProt Q9NRL3) | inactive: 0.231
UniProt Q9NUP1_C210 | inactive: 0.821
HEATR1 C49 (UniProt Q9H583) | inactive: -0.0715
GEMIN7 C121 (UniProt Q9H840) | inactive: 0.108
CENPH C35 (UniProt Q9H3R5) | inactive: 0.442
DSN1 C355 (UniProt Q9H410) | inactive: 0.287
RAVER2 C362 (UniProt Q9HCJ3) | inactive: 0.837
BAZ1A C586 (UniProt Q9NRL2) | inactive: 0.287
MCCC2 C267 (UniProt Q9HCC0) | inactive: 0.733
PNO1 C64 (UniProt Q9NRX1) | inactive: 0.367
OSGEPL1 C356 (UniProt Q9H4B0) | inactive: 0.273
BAZ1A C893 (UniProt Q9NRL2) | inactive: 0.87
ACTR5 C48 (UniProt Q9H9F9) | inactive: 0.121
NIT2 C146 (UniProt Q9NQR4) | inactive: 0.119
UBN1 C711 (UniProt Q9NPG3) | inactive: 0.7
LRRC40 C227 (UniProt Q9H9A6) | inactive: 0.34
HEATR1 C1237 (UniProt Q9H583) | inactive: 0.166
MDN1 C991 (UniProt Q9NU22) | inactive: 0.17
